No constants are given. Whether binding was seen depends on the method and setting. Some entries that bind do so weakly or less than the wild type.
How the values were obtained:
[1] = molecular target: Human TCTP (translationally controlled tumor protein) (human) (UniProt P13693); test: ELISA, human TCTP coated at 1 µg/ml, antibody titrated, OD 450 nm
[2] = molecular target: Human TCTP (translationally controlled tumor protein) (human) (UniProt P13693); test: ELISA, selection of hybridoma antibodies
[3] = molecular target: Human TCTP (translationally controlled tumor protein) (human) (UniProt P13693); test: ELISA, human TCTP coated at 1 ug/ml, antibody titrated
[4] = molecular target: Human TCTP (translationally controlled tumor protein) (human) (UniProt P13693); test: ELISA, selection after Beacon screening

Amino acid sequences for entries named in this document (tags omitted). A change or cut given only in a name is not applied to a line headed by its entry.
UniProt P13693: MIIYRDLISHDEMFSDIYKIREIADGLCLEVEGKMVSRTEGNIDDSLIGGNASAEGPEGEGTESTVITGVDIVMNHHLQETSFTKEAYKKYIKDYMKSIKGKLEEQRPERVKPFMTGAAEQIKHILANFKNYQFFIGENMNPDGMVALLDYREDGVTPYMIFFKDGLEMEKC

Measured: binding

B1: Ab22 (antibody, V domains shown)
VH: QVQLQQSGPGLVKPSQTLSLTCAISGDSVSSSSAAWNWIRQSPSRGLEWLGRTYYRSKWYNDYAESVKSRITINPDTSKNQFSLQLNSVTPEDTAVYYCARRLTIVRGVMRGGMDVWGQGTTVTVSS
VL: DIVMTQSPDSLAVSLDERATINCKSSQNLLYSANNKDYLAWYQQKPGQSPKLLIYWASTRYSGVPDRFSGSGSGTDFTLTISSLQAEDVAVYYCQQYYSTPWTFGQGTKVEIK
binds: [1] | [2] | [3]

B2: Ab21 (antibody, V domains shown)
VH: QVQLQQSGPGLVKPSQTLSLTCAISGDSVSSSSAAWNWIRQSPSRGLEWLGRTYYRSKWYNDYAESVKSRITINPDTSKNQFSLQLNSVTPEDTAVYYCARRLTIVRGVMRGGMDVWGQGTTVTVSS
VL: DIVMTQSPDSLAVSLDERATINCKSSQNLLYSANNKDYLAWYQQKPGQSPKLLIYWASTRYSGVPDRFSGSGSGTDFTLTISSLQAEDVAVYYCQQYYSTPWTFGQGTKVEIK
binds: [1] | [2] | [3]

B3: Ab3 (antibody, V domains shown)
VH: QVQLVQSGAEVKKPGASVKVSCKASGYTFTGYYMHWVRQAPGQGLEWMGWINPNSGGTNYAQKFQGWVTMTRDTSISTAYMELRLRSDDTAVYYCARLGTTGYYYFDYWGQGTLVTVSS
VL: EIVLTQSPDFQSVTPKEKVTITCRASQSIGSSLHWYQQKPDQSPKLLIKYASQSFSGVPSRFSGSGSGTDFTLTINSLEAEDAATYYCHQSSSLPRTFGQGTKVEIK
binds: [1] | [3] | [4]

From patent US20250388694A1
